The results in this text go back to PubChem BioAssay AID2685 (National Center for Advancing Translational Sciences (NCATS), 2010).

Broadly, the AC50 is the midpoint of the concentration-response curve, whichever way the signal moves. A higher AC50 goes with weaker potency.

The structures appear in SMILES notation. This is one part of the list. Further columns of the screen follow, without active or inactive calls. Compounds called inactive in the main read-out are mostly missing here. Potencies come from curve fits of mixed quality, noted in brackets.

A short description of this assay: qHTS Assay for Lipid Storage Modulators in Drosophila S3 Cells.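 For cell number change: cells counted by Cell Tracker Red CMTPX staining in the red channel.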 The note with it: BODIPY lipid droplet fluorescence, 18-24 h; for cell number change: measured here: cell count max response, cells fed with added oleic acid. In a few lines: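 Drosophila S3 cells got compounds at several concentrations plus oleic acid (400 uM solution). Laser-scanning cytometry with 488 nm excitation read lipid droplets at 500-530 nm and cells at 575-640 nm. Percent activity was relative to 20 uM Triacsin C.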

The mark [1] stands for this setting: measured here: lipid fluorescence (Fed channel) AC50, cells fed with added oleic acid.
Where [2] appears, read: measured here: cell number channel AC50, cells fed with added oleic acid.

Consider `Cc1cccc2c(CCNC(=O)c3ccc([N+](=O)[O-])cc3)c[nH]c12`, for which the cell number change was -5.43%. The AC50 under setting [1] is 1.64 µM [rising, partial curve, poor fit]. As to `Cc1ccc(NC(=O)C/C(N)=N/OC(=O)c2ccccc2)cc1`, the cell number change came out at 9.88%. Moreover, the AC50 under setting [1] was 4.11 µM [falling, single point]. Consider `CC(OC(=O)c1ccc(Br)c(S(=O)(=O)N2CCOCC2)c1)C(=O)NC1CCCCC1C` (stereo not given), for which the cell number change came out at 88.5%. For the same compound, the concentration at half-maximal activity (AC50) under setting [2] was 14.6 µM [rising, partial curve].

`CC(=O)OCC(=O)C1=CCC2C3CCC4=CC(=O)C=CC4(C)C3(F)C(OC(C)=O)CC12C` (stereo not given): the cell number change came out at 0.62%. The half-maximal activity concentration (AC50) under setting [1] was 0.00461 µM [falling, full curve, poor fit]. Regarding `Cc1ccc2ccc[n+](Cc3ccccc3)c2c1`, the cell number change was found to be 6.73%. Moreover, the concentration at half-maximal activity (AC50) under setting [2] was 7.31 µM [falling, single point]. As for `CSc1nnc2ccc(-c3ccc(C)cc3)nn12`, the cell number change turned out to be 5.07%. Besides, the AC50 under setting [1] was 0.411 µM [falling, full curve, poor fit]. Regarding `Cc1ccc(SCCC(=O)Nc2cc(C)on2)cc1`, the cell number change worked out at 0.605%. With `Clc1ccc(Oc2cnns2)c(Cl)c1`, the AC50 under setting [2] is 0.731 µM [rising, single point].

Take `Fc1ccc(-c2cc(-c3nnc4n3CCCCC4)c3ccccc3n2)cc1`: the cell number change is -25.6%.

`COc1ccc(N(CC(=O)Nc2cc(OC)ccc2OC)S(=O)(=O)c2c(C)noc2C)cc1`: the cell number change was -15.9%. For the same compound, the AC50 under setting [1] is 6.51 µM [rising, single point]. `COc1ccc(N2CCN(C(=O)c3c(Cl)cnn3C)CC2)cc1`: the cell number change is -4.53%. For `O=C(c1ccc(CS(=O)c2ccccc2Cl)o1)N1CCN(c2ccccn2)CC1` (stereo not given), the cell number change was -5.67%. Further, under setting [1], the AC50 is 0.58 µM [rising, single point]. For the compound `CCCCOc1ccccc1NC(=O)c1ccc(=O)[nH]c1`, the half-maximal activity concentration (AC50) under setting [2] was 2.06 µM [rising, partial curve] and the AC50 under setting [1] is 0.82 µM [rising, single point]. As to `Cc1ccc(OCc2cc(C(=O)NC3CCCCC3)no2)cn1`, the cell number change is -17.6%. The AC50 under setting [1] is 1.46 µM [rising, partial curve]. For `NC(=O)CC(NC(=O)c1ccc(Cl)cc1)C(=O)NCCc1ccc(S(N)(=O)=O)cc1` (stereo not given), the cell number change was determined as 26.7%. Consider `Cc1ccc(C(=O)OCC(=O)NCc2cc(C)c(O)c(C)c2)cc1S(=O)(=O)N1CCCCC1`, for which the cell number change is -39.9%. Moreover, the concentration at half-maximal activity (AC50) under setting [2] was 13 µM [falling, partial curve]. In addition, under setting [1], the AC50 was 8.2 µM [falling, partial curve, poor fit]. With `CN(C)S(=O)(=O)c1cccc(NC(=S)Nc2cc(Cl)cc(Cl)c2)c1`, the cell number change is -17.4%. Further, the concentration at half-maximal activity (AC50) under setting [1] is 0.116 µM [rising, full curve, poor fit]. With `COCCn1c(CNc2ccc(F)cc2)nnc1SCC(=O)Nc1ccc(OC)cc1OC`, the cell number change was -19.4%. In addition, the concentration at half-maximal activity (AC50) under setting [1] is 29.1 µM [falling, single point].

Consider `O=C(CSc1nnc(-c2ccco2)n1Cc1ccccc1)NCc1ccccc1`, for which the cell number change is -27.8%. The AC50 under setting [1] is 16.4 µM [falling, single point]. For `CCCCNC(=S)N(Cc1c(C)noc1C)c1ccccc1`, the cell number change is 30.9%. Further, under setting [2], the concentration at half-maximal activity (AC50) was 7.31 µM [rising, partial curve, poor fit]. Besides, under setting [1], the AC50 was 6.51 µM [rising, full curve, poor fit]. Turning to `O=C(O)CN1C(=O)COc2ccc(S(=O)(=O)N3CCCCCC3)cc21`, the cell number change stood at 10.7%. On to `CC(C)n1c(-c2ccco2)csc1=Nc1cccnc1`, for which the cell number change is -1.71%. The half-maximal activity concentration (AC50) under setting [1] was 0.461 µM [rising, single point]. Take `CC(C)(C)OC(=O)NCCCCCc1nnc(SCC(=O)Nc2cccc(Cl)c2)o1`: the concentration at half-maximal activity (AC50) under setting [1] is 29.1 µM [falling, single point].

Regarding `O=C(C[n+]1cccc(C(=O)Nc2ccccc2)c1)c1ccc([N+](=O)[O-])cc1`, the cell number change is 17.1%. `CCCn1c(SCC(=O)Nc2cccc(S(=O)(=O)N(C)C)c2)nc2ccccc2c1=O`: the cell number change is -23.9%. Moreover, the AC50 under setting [1] was 0.146 µM [falling, full curve, poor fit].

In the case of `O=C(N/N=C/c1ccc(O)c(O)c1)NC12CC3CC(CC(C3)C1)C2`, the cell number change is -48.7%. In addition, the half-maximal activity concentration (AC50) under setting [2] was 29.1 µM [falling, single point]. Moreover, the AC50 under setting [1] was 23.1 µM [falling, single point].

For `O=C(NCc1ccc(F)cc1)c1nc(-c2cccs2)no1`, the cell number change stood at 63.3%. Further, under setting [2], the AC50 is 18.4 µM [rising, single point]. Regarding `COc1cc2c3nnc(-c4ccc(F)cc4)c-3cn(Cc3ccc(C)cc3)c2cc1OC`, the cell number change is -64.5%. Under setting [2], the AC50 was 16.4 µM [falling, single point]. Besides, the AC50 under setting [1] is 7.31 µM [falling, partial curve]. In the case of `Cc1cc(C(=O)CN2C(=O)C3CC=CCC3C2=O)c(C)n1-c1ccccc1` (stereo not given), the cell number change is -16.2%. Besides, the AC50 under setting [1] is 0.291 µM [rising, partial curve, poor fit]. As to `Cc1cccnc1NC(=O)C1CCN(S(=O)(=O)c2cccs2)CC1`, the cell number change was determined as 83.9%. In addition, the half-maximal activity concentration (AC50) under setting [2] was 0.116 µM [rising, full curve]. For the same compound, the concentration at half-maximal activity (AC50) under setting [1] is 4.61 µM [rising, full curve, poor fit].

Take `COCCNC(=O)c1ccccc1NC(=O)CCSc1ccccc1`: the cell number change was determined as 39.1%. In addition, under setting [2], the half-maximal activity concentration (AC50) is 5.17 µM [rising, single point]. Under setting [1], the AC50 was 0.103 µM [rising, full curve]. On to `COc1cc(N=C(N)N=C(N)N)cc(OC)c1`, for which the cell number change was -24.9%. For the same compound, the AC50 under setting [2] is 0.146 µM [falling, full curve, poor fit]. Further, the concentration at half-maximal activity (AC50) under setting [1] is 0.146 µM [falling, full curve, poor fit]. Take `COc1ccc(/C=N\NC(=O)c2ccc(-c3ccccc3)cc2)cc1COC(C)=O`: the cell number change is 9.38%. Moreover, under setting [1], the AC50 is 0.146 µM [rising, full curve, poor fit]. For `O=C(NN=C1CCCCCCC1)c1ccc2ccccc2n1`, the cell number change is 9.4%. Turning to `COc1ccc(NC(=O)COC(=O)CCCOc2ccc(Cl)cc2Cl)cc1Cl`, the cell number change is -16.7%. Same read-out and setting: the same measure for `Cc1ccc(S(=O)(=O)NC2CC2)s1`: -8.53%; for `CCOc1ccccc1NC(=O)COc1coc(CN2CCCc3ccccc32)cc1=O`: -20.6%. For the compound `COc1ccccc1CCNC(=O)C(=O)NCC1OCCN1S(=O)(=O)c1ccc(Br)cc1` (stereo not given), the cell number change was -28.6%. The AC50 under setting [1] was 0.082 µM [falling, full curve, poor fit]. As for `CCCC(=O)Nc1nnc(SCC(=O)NC2CC2)s1`, the cell number change is 7.26%. The AC50 under setting [1] was 18.4 µM [falling, partial curve, poor fit]. Take `COc1ccc(C(=O)NCc2nc(C)c(C)s2)cc1OC1CCN(C(C)C)CC1`: the cell number change worked out at 23.7%. In addition, the AC50 under setting [1] is 8.2 µM [rising, partial curve].
